Assay results reported in patent US9045525B2, “Amyloid β-protein-specific production-inhibiting polypeptide” (THE DOSHISHA, priority 2012, dated 2015).
At least one compound was matched to its structure with a doubt left. Peptide text beside a SMILES is read from it.

Amino acid sequences for entries named in this document (tags omitted). A change or cut given only in a name is not applied to a line headed by its entry. Residues count along the entry.
UniProt P05067, 672-699: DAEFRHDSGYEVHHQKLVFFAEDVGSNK

Target: N-terminal region of βCTF (Amyloid β 1-9, SEQ ID NO: 15) (Homo sapiens, UniProt P05067)
Test: Dissociation constant (KD) for the N-terminal region of βCTF
Details: read-out: dissociation constant (KD); binding to the polypeptide of SEQ ID NO: 15 (Amyloid β 1-9)

CC[C@H](C)[C@H](NC(=O)[C@H](CC(=O)O)NC(=O)[C@@H](NC(=O)[C@@H](NC(=O)[C@H](CS)NC(=O)[C@H](Cc1ccc(O)cc1)NC(=O)[C@H](CS)NC(=O)[C@H](CC(=O)O)NC(=O)[C@H](CS)NC(=O)[C@@H](NC(=O)[C@@H](NC(=O)[C@H](CC(C)C)NC(=O)[C@H](Cc1c[nH]cn1)NC(=O)[C@H](CCSC)NC(C)=O)C(C)C)[C@@H](C)CC)[C@@H](C)O)[C@@H](C)O)C(=O)N[C@@H](CS)C(=O)N[C@@H](Cc1ccc(O)cc1)C(=O)N[C@@H](CS)C(=O)N[C@@H](Cc1ccc(O)cc1)C(=O)N[C@@H](CO)C(=O)N[C@@H](CS)C(=O)N[C@H](C(=O)N1CCC[C@H]1C(=O)N[C@@H](CC(N)=O)C(N)=O)[C@@H](C)O [#4] (Ac-MHLVICDCYCTTDICYCYSCTPN-NH2)
Kd: 2620 nM
